Test [1] has as its target full-length, human GFP-Kif3A (human) (UniProt Q9Y496). Nature of the test: co-IP; reciprocal co-IPs from lysates of CHO cells co-transfected with two constructs; lysis buffer 25 mM Tris pH 7.5, 150 mM NaCl, 0.25% deoxycholate, 1% NP-40, 1 mM EDTA; Dynabeads Protein G with primary antibodies or GFP-Trap_M beads, 1 h at room temperature; Western blot.
For test [2], the target named is T1, human full-length V5-Kif7 (human) (UniProt Q2M1P5).
T1 sequence: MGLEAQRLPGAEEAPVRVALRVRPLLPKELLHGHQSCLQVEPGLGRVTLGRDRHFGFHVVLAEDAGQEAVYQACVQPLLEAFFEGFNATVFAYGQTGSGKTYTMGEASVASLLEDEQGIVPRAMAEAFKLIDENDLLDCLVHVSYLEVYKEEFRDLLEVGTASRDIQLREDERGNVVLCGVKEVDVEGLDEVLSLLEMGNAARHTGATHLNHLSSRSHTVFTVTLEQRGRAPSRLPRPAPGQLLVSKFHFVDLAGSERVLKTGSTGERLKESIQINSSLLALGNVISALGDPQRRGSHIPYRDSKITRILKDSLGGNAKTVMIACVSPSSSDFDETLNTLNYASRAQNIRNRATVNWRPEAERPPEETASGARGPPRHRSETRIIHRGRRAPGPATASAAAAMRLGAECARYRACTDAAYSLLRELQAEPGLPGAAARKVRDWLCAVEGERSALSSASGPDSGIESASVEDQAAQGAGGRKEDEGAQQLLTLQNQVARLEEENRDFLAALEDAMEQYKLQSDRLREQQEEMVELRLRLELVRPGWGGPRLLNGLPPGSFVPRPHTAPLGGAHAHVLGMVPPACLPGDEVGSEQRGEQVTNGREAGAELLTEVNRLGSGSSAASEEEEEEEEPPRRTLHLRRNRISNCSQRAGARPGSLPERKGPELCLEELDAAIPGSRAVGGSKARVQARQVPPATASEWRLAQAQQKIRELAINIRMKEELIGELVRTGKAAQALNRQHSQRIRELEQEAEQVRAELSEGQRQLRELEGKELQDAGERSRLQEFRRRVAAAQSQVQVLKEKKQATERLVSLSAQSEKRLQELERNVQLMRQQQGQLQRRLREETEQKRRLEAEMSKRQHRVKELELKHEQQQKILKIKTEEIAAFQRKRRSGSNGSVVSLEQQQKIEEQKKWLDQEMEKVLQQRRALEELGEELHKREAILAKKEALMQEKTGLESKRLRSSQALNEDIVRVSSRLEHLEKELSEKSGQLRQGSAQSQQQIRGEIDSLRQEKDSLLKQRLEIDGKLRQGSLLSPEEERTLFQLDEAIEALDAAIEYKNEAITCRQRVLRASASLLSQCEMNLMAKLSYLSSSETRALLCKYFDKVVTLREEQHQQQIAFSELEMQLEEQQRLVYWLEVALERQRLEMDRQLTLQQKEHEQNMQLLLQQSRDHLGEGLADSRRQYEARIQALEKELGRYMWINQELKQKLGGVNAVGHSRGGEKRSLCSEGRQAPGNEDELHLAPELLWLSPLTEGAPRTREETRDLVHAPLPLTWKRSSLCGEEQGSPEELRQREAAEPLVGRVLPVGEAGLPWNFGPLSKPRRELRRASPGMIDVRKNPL
The test is described as above.

Protein sequences, listed by entry. Tags and fused reporters are not part of them. Lines headed by an entry give the natural chain unless they say otherwise; changes in a name come on top.
UniProt Q9Y496: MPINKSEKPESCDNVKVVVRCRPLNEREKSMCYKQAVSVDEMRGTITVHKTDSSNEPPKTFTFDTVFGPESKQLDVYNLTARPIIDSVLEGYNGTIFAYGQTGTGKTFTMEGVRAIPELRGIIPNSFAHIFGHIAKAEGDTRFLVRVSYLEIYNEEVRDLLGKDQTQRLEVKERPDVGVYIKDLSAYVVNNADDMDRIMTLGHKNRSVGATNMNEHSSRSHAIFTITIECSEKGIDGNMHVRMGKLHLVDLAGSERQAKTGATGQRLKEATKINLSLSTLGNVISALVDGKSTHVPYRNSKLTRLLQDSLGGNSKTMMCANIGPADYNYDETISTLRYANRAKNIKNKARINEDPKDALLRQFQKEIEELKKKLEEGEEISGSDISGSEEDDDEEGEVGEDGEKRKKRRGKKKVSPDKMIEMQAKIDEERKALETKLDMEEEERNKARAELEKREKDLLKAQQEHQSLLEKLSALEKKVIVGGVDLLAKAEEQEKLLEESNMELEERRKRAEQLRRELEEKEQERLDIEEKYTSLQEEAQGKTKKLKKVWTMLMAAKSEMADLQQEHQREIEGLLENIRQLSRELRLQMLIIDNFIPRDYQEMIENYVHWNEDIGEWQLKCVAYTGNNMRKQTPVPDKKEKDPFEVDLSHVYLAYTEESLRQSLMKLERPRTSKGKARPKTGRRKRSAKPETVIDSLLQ
UniProt P36405: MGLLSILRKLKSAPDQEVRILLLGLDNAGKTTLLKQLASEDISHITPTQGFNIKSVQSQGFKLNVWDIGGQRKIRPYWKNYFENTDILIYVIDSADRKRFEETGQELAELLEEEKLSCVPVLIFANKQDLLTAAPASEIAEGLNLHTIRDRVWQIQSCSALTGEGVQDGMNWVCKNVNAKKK

No constants are given. Whether binding was seen depends on the method and setting. Binding seen in cells or lysates may run through a third protein. Some entries that bind do so weakly or less than the wild type. For some of these results: Sequences can lack the tags named with a protein.

For the substance “Arl3-Q71L-myc (from UniProt P36405 1-182)”, the binding result in test [1] and in test [2] was “no binding” in each case.
For the substance “Arl3-T31N-myc (from UniProt P36405 1-182)”, the binding entry is on record as “no binding” in test [1] and “binds” in test [2].

(Values after publication PMC5808637.)
